# Some of the results follow. Shown are side measurements of this screen, not its main read-out; they come without a call. The list favours compounds with an active or inconclusive main result. Potencies come from curve fits of mixed quality, noted in brackets.
# Assay: qHTS Assay for Lipid Storage Modulators in Drosophila S3 Cells;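 on cell number change: cells counted by Cell Tracker Red CMTPX staining in the red channel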
# Settings: BODIPY lipid droplet fluorescence, 18-24 h; for cell number change: measured here: cell count max response, cells fed with added oleic acid
# Method in brief: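 Drosophila S3 cells got compounds at several concentrations plus oleic acid (400 uM solution). Laser-scanning cytometry with 488 nm excitation read lipid droplets at 500-530 nm and cells at 575-640 nm. Percent activity was relative to 20 uM Triacsin C.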
# [1] = measured here: lipid fluorescence (Fed channel) AC50, cells fed with added oleic acid
# [2] = measured here: cell number channel AC50, cells fed with added oleic acid
smiles,measurement,setting,value
CCN(CC)CCCNC(=O)C1CCCN(c2nnc(N3CCCC3=O)s2)C1 (centres undefined),AC50,[1],"23.1 µM [falling, partial curve]"
Cc1ccc(-c2nn3c(C)nnc3c3ccccc23)cc1S(=O)(=O)N1CCN(CCO)CC1,cell number change,,4.82%
same,AC50,[1],"2.31 µM [rising, full curve, poor fit]"
CC(C)C(NC(=O)c1ccc(F)cc1)C(=O)NC1(C)CCS(=O)(=O)C1 (centres undefined),cell number change,,19%
same,AC50,[1],"4.11 µM [rising, single point]"
O=C1C2CC=CCC2C(=O)N1c1ccc(N2CCN(c3ccccn3)CC2)c([N+](=O)[O-])c1 (centres undefined),cell number change,,-66.4%
same,AC50,[2],"23.1 µM [falling, partial curve]"
same,AC50,[1],"25.9 µM [falling, partial curve]"
CSc1ccc(/C=N/N2CCN(c3ccccc3)CC2)cc1,cell number change,,-5.31%
Cc1sc(-n2cccc2)c(C(=O)O)c1C,AC50,[1],"13 µM [falling, partial curve]"
CCC(=O)Nc1ccc(NC(=S)NC(=O)Cc2ccccc2)cc1,cell number change,,-4.63%
same,AC50,[1],"0.651 µM [rising, single point]"
Cc1c(N(C)C(=O)c2ccco2)c(=O)n(-c2ccccc2)n1C,cell number change,,-115%
same,AC50,[2],"32.6 µM [falling, partial curve]"
same,AC50,[1],"25.9 µM [falling, partial curve]"
CC(C)(C)OC(=O)N1CCC(NC(=O)c2[nH]cnc2C(=O)Nc2cccc(Cl)c2)CC1,cell number change,,-75.9%
same,AC50,[2],"18.4 µM [falling, partial curve]"
same,AC50,[1],"0.517 µM [falling, partial curve, poor fit]"
Fc1ccc2c(Cl)c(-c3nnc(-c4cccs4)o3)sc2c1,cell number change,,28.2%
CC1CCN(CC(=O)Nc2ccccc2-c2ccccc2)CC1,cell number change,,-42.1%
same,AC50,[2],"23.1 µM [falling, single point]"
same,AC50,[1],"20.6 µM [falling, single point]"
CC(C)C[C@@H](CSc1ccc(Br)cc1)N1CCN(CC(C)C)CCC1=O,cell number change,,16.7%
same,AC50,[1],"4.61 µM [rising, single point]"
O=C1c2ccccc2C(=O)c2[nH]cnc21,cell number change,,-33.5%
same,AC50,[2],"29.1 µM [falling, single point]"
same,AC50,[1],"29.1 µM [falling, single point]"
COc1cc(NC(=O)c2cc(-c3cccnc3)nc3ccc(Br)cc23)cc(OC)c1,cell number change,,41.8%
same,AC50,[2],"6.51 µM [falling, single point]"
same,AC50,[1],"20.6 µM [falling, partial curve, poor fit]"
Cc1ccnc(SCC(=O)N2CCN(C(c3ccccc3)c3ccccc3)CC2)n1,cell number change,,13.6%
same,AC50,[2],"6.51 µM [rising, single point]"
O=C(NC(NCC1CCCO1)C(Cl)(Cl)Cl)c1cccc2ccccc12 (centres undefined),cell number change,,62.3%
same,AC50,[2],"14.6 µM [rising, single point]"
same,AC50,[1],"16.4 µM [rising, partial curve]"
CCS(=O)(=O)c1nc(S(=O)(=O)c2ccc(Cl)cc2)c(N2CCc3ccccc3C2)s1,cell number change,,76.2%
same,AC50,[2],"29.1 µM [rising, single point]"
same,AC50,[1],"8.2 µM [rising, single point]"
COCc1nnc(NC(=O)CCCCCN2C(=O)c3ccccc3C2=O)s1,cell number change,,71%
same,AC50,[2],"29.1 µM [rising, single point]"
CCOc1ccc(N2C(=O)CC(N3CCC(NC(=O)Nc4ccccc4)CC3)C2=O)cc1 (centres undefined),cell number change,,38%
same,AC50,[2],"2.31 µM [rising, partial curve, poor fit]"
same,AC50,[1],"1.84 µM [rising, partial curve]"
CN(CC(=O)NCc1cccnc1)S(=O)(=O)c1ccc2c(c1)c(=O)n(C)c(=O)n2C,cell number change,,20.6%
same,AC50,[1],"0.00731 µM [rising, full curve, poor fit]"
O=C(COC(=O)Cc1c(Cl)cccc1Cl)Nc1ccc(OC(F)(F)F)cc1,cell number change,,-23.6%
same,AC50,[2],"0.00517 µM [falling, full curve, poor fit]"
COC(=O)C1=C(C)N(Cc2ccccc2)C(=NCC(C)C)N[C@H]1c1ccccc1,cell number change,,-9.59%
same,AC50,[1],"6.51 µM [falling, single point]"
CCOC(=O)NC(=O)COC(=O)Cc1cc(OC)c(OC)c(OC)c1,cell number change,,10.3%
same,AC50,[1],"6.51 µM [falling, single point]"
O=c1c2c(-c3cccs3)csc2[nH]c(=S)n1-c1ccccc1,cell number change,,-20.2%
C/C(N)=C(/C#N)C(=O)COC(=O)c1ccc(C)c(S(=O)(=O)N2CCCCC2)c1,AC50,[2],"0.651 µM [rising, full curve, poor fit]"
COc1ccc(N2C(=O)CC(Sc3ccccc3C(=O)O)C2=O)c([N+](=O)[O-])c1 (centres undefined),cell number change,,9.54%
CC(Sc1nnc(COc2ccc([N+](=O)[O-])cc2)n1-c1ccccc1)C(=O)O (centres undefined),cell number change,,-10%
same,AC50,[1],"0.0517 µM [falling, full curve, poor fit]"
Cn1c(N)c(C(=O)COc2ccc(C#N)cc2)c(=O)n(C)c1=O,AC50,[1],"6.51 µM [rising, single point]"
COc1ccc([C@@H]2[C@@H]3C(=O)N(C(C)(C)C)C(=O)[C@@H]3[C@]3(CC(C)C)C(=O)N(c4ccccc4)C(=O)N23)cc1,cell number change,,-6.59%
C#CCOCCOCCOCCNc1nc(N2CCN(C(=O)CCCCCCCCCCNC(=O)[C@H]([C@@H](C)CC)n3cc(CCCCN=C(N)N)nn3)CC2)nc(N2CCN(C(=O)CCCCCCCCCCNC(=O)[C@H](CO)n3cc(CCCSC)nn3)CC2)n1,cell number change,,-49.5%
same,AC50,[2],"18.4 µM [falling, partial curve]"
same,AC50,[1],"0.13 µM [falling, full curve, poor fit]"
CCc1ccc(-c2cc3c(=O)n(CC(=O)N4CCCCCC4)nc(C)n3n2)cc1,cell number change,,18.8%
Cc1cc(C)c(S(=O)(=O)N2CCCC(C(=O)NC3CCCC3)C2)c(C)c1 (centres undefined),cell number change,,14.6%
CCOc1cc(C(=S)N2CCOCC2)ccc1OS(=O)(=O)c1ccccc1,cell number change,,13.8%
same,AC50,[1],"1.46 µM [rising, partial curve]"
Cc1c(CC(=O)NCC(=O)N[C@H](Cc2ccccc2)C(=O)O)c(=O)oc2cc(O)ccc12,cell number change,,25.9%
same,AC50,[1],"29.1 µM [falling, single point]"
COc1nc(N2CCCCCC2)nc(N2CCCCCC2)n1,cell number change,,-34.6%
same,AC50,[2],"32.6 µM [falling, single point]"

# Rewritten with tabs: entries from further up.
smiles	measurement	setting	value
C#CCOCCOCCOCCNc1nc(N2CCN(C(=O)CCCCCCCCCCNC(=O)[C@H]([C@@H](C)CC)n3cc(CCCCN=C(N)N)nn3)CC2)nc(N2CCN(C(=O)CCCCCCCCCCNC(=O)[C@H](CO)n3cc(CCCSC)nn3)CC2)n1	cell number change		-49.5%
same	AC50	[2]	18.4 µM [falling, partial curve]
same	AC50	[1]	0.13 µM [falling, full curve, poor fit]
CCc1ccc(-c2cc3c(=O)n(CC(=O)N4CCCCCC4)nc(C)n3n2)cc1	cell number change		18.8%
